Data on 36 targets can be found in the supplement of paper PMC10849652.

Sequences of proteins named here, by UniProt entry; tags and fusion partners are left off. A change or cut given only in a name is not applied to a line headed by its entry.
UniProt P33121: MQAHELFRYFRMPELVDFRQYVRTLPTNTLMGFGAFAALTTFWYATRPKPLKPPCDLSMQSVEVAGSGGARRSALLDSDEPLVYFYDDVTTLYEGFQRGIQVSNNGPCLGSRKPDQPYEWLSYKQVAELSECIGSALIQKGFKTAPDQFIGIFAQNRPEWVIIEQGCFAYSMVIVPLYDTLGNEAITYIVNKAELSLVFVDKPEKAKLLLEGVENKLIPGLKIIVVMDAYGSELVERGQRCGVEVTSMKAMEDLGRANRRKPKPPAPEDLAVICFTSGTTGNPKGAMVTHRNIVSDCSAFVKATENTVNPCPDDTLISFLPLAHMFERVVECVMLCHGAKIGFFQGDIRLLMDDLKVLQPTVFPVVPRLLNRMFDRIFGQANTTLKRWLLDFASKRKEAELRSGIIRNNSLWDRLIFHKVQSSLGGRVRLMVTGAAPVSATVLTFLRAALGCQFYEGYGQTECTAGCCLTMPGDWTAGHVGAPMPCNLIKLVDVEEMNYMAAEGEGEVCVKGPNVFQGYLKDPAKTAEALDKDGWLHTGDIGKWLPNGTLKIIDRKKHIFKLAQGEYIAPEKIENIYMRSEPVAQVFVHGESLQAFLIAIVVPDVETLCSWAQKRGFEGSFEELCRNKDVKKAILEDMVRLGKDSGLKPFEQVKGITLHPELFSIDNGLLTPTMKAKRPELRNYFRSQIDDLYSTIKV
UniProt P24666: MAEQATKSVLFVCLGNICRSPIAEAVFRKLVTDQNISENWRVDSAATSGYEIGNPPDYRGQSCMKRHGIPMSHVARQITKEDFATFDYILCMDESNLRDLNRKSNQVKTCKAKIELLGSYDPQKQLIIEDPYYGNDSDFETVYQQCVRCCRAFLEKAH
UniProt Q9Y312: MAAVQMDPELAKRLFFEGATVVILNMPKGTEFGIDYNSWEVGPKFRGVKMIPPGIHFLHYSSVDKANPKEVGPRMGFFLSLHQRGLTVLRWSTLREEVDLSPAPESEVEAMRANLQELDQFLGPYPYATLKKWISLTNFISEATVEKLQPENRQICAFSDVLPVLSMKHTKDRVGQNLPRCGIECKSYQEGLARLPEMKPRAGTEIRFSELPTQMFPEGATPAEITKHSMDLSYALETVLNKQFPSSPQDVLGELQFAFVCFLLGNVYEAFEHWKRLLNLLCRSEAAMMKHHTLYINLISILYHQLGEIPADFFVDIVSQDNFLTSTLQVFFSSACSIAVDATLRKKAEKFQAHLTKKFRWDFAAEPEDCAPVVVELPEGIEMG
UniProt Q5T3U5: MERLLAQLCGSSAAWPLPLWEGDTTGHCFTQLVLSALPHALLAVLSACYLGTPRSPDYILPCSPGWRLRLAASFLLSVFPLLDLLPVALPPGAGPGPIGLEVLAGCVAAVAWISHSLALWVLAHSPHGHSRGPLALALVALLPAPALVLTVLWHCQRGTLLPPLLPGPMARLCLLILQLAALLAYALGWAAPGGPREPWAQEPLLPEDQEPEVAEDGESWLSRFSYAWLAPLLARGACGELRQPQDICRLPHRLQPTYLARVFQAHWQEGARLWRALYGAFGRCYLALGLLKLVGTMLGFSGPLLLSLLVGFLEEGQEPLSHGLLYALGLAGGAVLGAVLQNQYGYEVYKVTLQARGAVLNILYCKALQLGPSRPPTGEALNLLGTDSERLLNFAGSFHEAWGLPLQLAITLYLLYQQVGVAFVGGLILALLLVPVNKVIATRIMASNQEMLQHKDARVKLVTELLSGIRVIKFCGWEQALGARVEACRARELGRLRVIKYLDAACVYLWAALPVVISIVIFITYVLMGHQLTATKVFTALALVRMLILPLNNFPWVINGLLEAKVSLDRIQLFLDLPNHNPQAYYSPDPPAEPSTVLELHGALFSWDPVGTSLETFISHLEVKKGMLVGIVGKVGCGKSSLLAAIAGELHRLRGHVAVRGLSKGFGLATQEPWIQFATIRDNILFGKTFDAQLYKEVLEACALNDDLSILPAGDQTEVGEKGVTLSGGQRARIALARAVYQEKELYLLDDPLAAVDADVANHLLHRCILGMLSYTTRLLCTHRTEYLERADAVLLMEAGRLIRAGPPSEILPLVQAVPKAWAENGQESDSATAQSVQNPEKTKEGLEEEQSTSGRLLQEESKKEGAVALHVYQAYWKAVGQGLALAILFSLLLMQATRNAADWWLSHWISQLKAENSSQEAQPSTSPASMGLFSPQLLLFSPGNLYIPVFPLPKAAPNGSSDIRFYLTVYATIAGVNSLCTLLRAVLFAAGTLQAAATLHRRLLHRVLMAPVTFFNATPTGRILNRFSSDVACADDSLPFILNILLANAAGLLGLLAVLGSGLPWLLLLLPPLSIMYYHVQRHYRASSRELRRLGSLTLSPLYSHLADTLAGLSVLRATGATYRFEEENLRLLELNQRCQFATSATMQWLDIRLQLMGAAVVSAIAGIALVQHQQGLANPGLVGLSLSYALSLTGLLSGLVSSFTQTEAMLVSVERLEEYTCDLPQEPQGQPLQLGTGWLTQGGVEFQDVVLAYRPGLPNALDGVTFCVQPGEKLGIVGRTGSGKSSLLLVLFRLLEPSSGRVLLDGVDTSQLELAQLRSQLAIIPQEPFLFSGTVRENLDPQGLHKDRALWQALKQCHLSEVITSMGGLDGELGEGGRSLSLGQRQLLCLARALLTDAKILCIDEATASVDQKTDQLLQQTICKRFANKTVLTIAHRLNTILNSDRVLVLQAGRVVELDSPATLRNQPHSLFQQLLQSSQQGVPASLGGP
UniProt Q13685: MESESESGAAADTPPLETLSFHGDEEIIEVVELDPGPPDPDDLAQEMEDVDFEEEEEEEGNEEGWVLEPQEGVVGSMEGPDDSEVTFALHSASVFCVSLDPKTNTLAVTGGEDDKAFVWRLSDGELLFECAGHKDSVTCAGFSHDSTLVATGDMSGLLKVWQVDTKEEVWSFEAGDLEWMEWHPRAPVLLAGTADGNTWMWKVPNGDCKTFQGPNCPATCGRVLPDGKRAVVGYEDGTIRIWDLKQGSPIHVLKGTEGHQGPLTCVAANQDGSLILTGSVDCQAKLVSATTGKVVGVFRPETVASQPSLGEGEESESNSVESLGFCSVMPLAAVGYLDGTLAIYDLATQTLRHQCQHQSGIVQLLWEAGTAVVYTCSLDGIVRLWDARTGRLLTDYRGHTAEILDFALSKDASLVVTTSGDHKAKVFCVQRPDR
UniProt Q15057: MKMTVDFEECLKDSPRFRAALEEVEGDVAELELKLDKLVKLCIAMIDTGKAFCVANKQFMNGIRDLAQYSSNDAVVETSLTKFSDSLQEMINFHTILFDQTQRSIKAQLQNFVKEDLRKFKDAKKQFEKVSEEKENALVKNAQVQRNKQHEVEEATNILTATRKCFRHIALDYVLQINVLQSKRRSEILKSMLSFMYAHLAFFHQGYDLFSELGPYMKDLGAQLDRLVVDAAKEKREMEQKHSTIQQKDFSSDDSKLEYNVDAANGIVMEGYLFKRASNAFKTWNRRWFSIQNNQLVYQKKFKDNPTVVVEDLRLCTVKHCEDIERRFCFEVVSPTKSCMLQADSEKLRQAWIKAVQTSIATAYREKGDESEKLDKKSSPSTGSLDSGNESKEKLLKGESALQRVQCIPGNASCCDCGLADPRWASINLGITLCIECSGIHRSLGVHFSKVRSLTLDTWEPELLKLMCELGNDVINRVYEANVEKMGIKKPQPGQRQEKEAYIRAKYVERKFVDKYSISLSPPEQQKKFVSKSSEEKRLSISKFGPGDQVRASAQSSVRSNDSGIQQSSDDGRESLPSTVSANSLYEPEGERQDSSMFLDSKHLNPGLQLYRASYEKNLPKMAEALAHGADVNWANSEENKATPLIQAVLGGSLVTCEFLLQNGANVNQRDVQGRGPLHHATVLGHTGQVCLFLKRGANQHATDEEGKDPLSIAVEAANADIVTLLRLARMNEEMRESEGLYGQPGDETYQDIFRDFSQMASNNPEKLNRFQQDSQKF
UniProt O95573: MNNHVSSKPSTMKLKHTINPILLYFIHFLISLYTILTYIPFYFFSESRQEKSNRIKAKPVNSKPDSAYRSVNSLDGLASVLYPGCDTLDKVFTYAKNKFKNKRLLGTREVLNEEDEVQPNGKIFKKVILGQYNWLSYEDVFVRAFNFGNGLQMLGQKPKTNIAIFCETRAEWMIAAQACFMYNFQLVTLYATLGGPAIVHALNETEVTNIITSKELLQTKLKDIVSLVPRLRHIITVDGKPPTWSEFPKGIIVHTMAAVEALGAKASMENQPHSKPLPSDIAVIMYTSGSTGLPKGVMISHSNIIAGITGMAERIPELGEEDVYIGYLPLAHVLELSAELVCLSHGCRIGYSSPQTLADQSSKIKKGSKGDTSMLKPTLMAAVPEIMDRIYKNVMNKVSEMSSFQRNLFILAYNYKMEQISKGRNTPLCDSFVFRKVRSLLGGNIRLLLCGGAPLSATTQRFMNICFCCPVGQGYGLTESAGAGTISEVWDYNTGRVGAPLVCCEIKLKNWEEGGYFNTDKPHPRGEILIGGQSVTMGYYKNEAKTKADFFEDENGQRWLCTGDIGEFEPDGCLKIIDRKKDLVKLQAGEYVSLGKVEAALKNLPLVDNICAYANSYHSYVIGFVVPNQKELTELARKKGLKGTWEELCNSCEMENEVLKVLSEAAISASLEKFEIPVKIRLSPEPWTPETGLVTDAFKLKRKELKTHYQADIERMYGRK
UniProt Q4L235: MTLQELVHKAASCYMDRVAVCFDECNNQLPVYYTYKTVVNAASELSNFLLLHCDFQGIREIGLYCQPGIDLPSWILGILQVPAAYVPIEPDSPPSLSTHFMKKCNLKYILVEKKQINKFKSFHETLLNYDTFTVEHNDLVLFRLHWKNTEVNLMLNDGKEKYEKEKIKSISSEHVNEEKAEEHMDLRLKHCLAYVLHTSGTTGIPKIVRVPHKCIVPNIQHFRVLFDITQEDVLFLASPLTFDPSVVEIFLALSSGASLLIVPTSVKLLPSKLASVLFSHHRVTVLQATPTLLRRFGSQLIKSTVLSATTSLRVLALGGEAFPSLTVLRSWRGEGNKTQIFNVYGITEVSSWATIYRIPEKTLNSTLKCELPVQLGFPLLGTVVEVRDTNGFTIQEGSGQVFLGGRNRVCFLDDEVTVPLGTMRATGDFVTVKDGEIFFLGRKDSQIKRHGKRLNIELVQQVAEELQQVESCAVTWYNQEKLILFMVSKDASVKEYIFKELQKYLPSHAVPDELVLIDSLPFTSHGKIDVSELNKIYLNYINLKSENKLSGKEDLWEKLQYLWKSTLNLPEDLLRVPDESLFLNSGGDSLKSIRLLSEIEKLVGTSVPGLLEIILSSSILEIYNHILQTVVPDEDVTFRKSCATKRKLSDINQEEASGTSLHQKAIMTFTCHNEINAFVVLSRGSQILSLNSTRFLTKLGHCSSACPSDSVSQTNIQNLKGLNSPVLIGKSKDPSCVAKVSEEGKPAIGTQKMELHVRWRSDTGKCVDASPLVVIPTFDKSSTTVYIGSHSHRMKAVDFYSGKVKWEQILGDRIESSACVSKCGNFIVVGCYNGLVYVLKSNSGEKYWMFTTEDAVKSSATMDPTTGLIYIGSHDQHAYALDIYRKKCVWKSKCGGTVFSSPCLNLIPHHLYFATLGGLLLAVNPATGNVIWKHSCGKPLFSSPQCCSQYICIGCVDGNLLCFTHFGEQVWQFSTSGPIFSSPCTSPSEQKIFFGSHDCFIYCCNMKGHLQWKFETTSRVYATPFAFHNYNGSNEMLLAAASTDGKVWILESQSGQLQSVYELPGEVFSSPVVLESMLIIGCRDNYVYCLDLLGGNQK
UniProt P11310: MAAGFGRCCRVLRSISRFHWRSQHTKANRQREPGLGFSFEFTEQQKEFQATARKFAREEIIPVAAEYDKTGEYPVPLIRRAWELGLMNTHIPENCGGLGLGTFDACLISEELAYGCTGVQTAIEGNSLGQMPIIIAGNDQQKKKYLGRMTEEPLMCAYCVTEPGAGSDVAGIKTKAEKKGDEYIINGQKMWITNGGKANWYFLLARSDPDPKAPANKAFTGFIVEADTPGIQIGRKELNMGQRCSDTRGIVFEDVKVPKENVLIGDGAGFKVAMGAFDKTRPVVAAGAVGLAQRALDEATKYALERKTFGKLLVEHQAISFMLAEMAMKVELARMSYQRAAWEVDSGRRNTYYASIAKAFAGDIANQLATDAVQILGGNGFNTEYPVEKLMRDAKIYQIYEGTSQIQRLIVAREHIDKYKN
UniProt Q9NX38: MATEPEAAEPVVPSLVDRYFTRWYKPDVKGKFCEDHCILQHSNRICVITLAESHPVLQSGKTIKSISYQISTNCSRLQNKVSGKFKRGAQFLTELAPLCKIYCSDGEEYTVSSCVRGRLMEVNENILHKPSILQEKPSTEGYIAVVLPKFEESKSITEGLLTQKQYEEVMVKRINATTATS

The list shows a part of the results.

Compound in the assay: CNC(=O)c1ccc(Nc2ncc(C(F)(F)F)c(NCc3nccnc3N(C)S(C)(=O)=O)n2)cc1 [defactinib]
Briefly: log2 fold change, soluble protein after heating vs DMSO (PISA); higher = thermal stabilisation; K562 cells, 10 uM, 30 min; active = over 0.2 and 3.5 SD of the protein, either way, in both replicates (recomputed). In outline: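 K562 cells at 2×10^6 cells/mL were treated with 10 μM compound for 30 min. Aliquots were heated for 3 min across 48°C-58°C, pooled, and extracted in PBS with 0.5% NP-40 at 4°C; soluble protein was the supernatant after 21,000xg for 90 min. Soluble protein was quantified by TMTpro 16plex LC-MS/MS with channel sums equalised, and reported as log2 fold change in thermal stability against DMSO controls, with values from duplicates.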
AAK1 (UniProt Q2M2I8): the log2 fold change is inactive: -0.106.
For ADAMTS5 (UniProt Q9UNA0), the log2 fold change was inactive: -0.021.
Next, ABHD13 (UniProt Q7L211): inactive: 0.004.
As for ACSL1 (UniProt P33121), the log2 fold change was inactive: -0.025.
As to ABHD16A (UniProt O95870), the log2 fold change is inactive: -0.065.
Next, ACP1 isoform 2 (UniProt P24666): inactive: -0.047; AAR2 (UniProt Q9Y312): inactive: 0.063.
In the case of ACSM3 (UniProt Q53FZ2), the log2 fold change is inactive: -0.148.
ABCC10 (UniProt Q5T3U5): the log2 fold change was inactive: -0.168.
As for AAMP (UniProt Q13685), the log2 fold change was inactive: -0.102.
Regarding ACSL4 (UniProt O60488), the log2 fold change is inactive: -0.041.
Next, ABHD17A isoform 2 (UniProt Q96GS6): inactive: -0.008; ACAP2 (UniProt Q15057): inactive: -0.032.
For the target ACTR1B (UniProt P42025), the log2 fold change is inactive: -0.005.
Take ACP1 (UniProt P24666): the log2 fold change was inactive: -0.044.
Turning to ADAD1 (UniProt Q96M93), the log2 fold change was inactive: 0.008.
On to ABCC5 (UniProt O15440), for which the log2 fold change is inactive: 0.019.
Take ACSL3 (UniProt O95573): the log2 fold change was inactive: -0.043.
As for ADAM15 (UniProt Q13444), the log2 fold change is inactive: -0.04.
In the case of AAGAB (UniProt Q6PD74), the log2 fold change is inactive: -0.187.
As for ACSL6 isoform 1 (UniProt Q9UKU0), the log2 fold change is inactive: 0.155.
Next, ACTBL2 (UniProt Q562R1): inactive: 0.432.
For ABCB6 (UniProt Q9NP58), the log2 fold change is inactive: -0.031.
With ABCA3 (UniProt Q99758), the log2 fold change is inactive: 0.108.
As for AASDH (UniProt Q4L235), the log2 fold change is inactive: -0.091.
Regarding ACO2 (UniProt Q99798), the log2 fold change is inactive: -0.083.
For the target ACADM isoform 2 (UniProt P11310), the log2 fold change is inactive: -0.016.
As for ACIN1 (UniProt Q9UKV3), the log2 fold change is active: -0.253.
Next, AAK1, A0A096LP25: inactive: 0.037; ACSF3 (UniProt Q4G176): inactive: -0.058; AARS2 (UniProt Q5JTZ9): inactive: -0.027.
ACBD6 (UniProt Q9BR61): the log2 fold change is inactive: -0.112.
With ACADVL isoform 3 (UniProt P49748), the log2 fold change was inactive: -0.011.
Take ACSL5 isoform 3 (UniProt Q9ULC5): the log2 fold change is inactive: -0.063.
AARSD1 isoform 3 (UniProt Q9BTE6): the log2 fold change is inactive: -0.071.
Consider ABITRAM (UniProt Q9NX38), for which the log2 fold change is inactive: -0.164.
